According to the supplement of paper PMC6411743:
± gives the standard deviation of the averaged measurements. The entries are a selection whose mix differs from that of the whole data set.

Amino acid sequences for entries named in this document (tags omitted). A change or cut given only in a name is not applied to a line headed by its entry.
UniProt O95402: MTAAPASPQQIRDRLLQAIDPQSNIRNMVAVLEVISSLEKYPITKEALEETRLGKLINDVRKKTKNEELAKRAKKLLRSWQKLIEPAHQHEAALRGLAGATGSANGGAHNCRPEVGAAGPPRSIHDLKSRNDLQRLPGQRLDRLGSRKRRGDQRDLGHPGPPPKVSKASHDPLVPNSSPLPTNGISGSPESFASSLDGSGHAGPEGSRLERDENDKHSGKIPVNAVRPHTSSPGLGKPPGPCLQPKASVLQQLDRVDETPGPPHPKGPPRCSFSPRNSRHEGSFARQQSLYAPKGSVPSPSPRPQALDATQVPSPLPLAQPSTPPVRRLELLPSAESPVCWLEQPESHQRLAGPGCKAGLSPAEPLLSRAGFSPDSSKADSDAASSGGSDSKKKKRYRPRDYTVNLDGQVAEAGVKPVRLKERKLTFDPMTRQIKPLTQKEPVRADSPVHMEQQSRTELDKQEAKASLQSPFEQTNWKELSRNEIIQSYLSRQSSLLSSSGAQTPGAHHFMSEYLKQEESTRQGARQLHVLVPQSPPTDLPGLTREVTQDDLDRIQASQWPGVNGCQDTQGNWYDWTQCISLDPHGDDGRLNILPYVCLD
UniProt O75179: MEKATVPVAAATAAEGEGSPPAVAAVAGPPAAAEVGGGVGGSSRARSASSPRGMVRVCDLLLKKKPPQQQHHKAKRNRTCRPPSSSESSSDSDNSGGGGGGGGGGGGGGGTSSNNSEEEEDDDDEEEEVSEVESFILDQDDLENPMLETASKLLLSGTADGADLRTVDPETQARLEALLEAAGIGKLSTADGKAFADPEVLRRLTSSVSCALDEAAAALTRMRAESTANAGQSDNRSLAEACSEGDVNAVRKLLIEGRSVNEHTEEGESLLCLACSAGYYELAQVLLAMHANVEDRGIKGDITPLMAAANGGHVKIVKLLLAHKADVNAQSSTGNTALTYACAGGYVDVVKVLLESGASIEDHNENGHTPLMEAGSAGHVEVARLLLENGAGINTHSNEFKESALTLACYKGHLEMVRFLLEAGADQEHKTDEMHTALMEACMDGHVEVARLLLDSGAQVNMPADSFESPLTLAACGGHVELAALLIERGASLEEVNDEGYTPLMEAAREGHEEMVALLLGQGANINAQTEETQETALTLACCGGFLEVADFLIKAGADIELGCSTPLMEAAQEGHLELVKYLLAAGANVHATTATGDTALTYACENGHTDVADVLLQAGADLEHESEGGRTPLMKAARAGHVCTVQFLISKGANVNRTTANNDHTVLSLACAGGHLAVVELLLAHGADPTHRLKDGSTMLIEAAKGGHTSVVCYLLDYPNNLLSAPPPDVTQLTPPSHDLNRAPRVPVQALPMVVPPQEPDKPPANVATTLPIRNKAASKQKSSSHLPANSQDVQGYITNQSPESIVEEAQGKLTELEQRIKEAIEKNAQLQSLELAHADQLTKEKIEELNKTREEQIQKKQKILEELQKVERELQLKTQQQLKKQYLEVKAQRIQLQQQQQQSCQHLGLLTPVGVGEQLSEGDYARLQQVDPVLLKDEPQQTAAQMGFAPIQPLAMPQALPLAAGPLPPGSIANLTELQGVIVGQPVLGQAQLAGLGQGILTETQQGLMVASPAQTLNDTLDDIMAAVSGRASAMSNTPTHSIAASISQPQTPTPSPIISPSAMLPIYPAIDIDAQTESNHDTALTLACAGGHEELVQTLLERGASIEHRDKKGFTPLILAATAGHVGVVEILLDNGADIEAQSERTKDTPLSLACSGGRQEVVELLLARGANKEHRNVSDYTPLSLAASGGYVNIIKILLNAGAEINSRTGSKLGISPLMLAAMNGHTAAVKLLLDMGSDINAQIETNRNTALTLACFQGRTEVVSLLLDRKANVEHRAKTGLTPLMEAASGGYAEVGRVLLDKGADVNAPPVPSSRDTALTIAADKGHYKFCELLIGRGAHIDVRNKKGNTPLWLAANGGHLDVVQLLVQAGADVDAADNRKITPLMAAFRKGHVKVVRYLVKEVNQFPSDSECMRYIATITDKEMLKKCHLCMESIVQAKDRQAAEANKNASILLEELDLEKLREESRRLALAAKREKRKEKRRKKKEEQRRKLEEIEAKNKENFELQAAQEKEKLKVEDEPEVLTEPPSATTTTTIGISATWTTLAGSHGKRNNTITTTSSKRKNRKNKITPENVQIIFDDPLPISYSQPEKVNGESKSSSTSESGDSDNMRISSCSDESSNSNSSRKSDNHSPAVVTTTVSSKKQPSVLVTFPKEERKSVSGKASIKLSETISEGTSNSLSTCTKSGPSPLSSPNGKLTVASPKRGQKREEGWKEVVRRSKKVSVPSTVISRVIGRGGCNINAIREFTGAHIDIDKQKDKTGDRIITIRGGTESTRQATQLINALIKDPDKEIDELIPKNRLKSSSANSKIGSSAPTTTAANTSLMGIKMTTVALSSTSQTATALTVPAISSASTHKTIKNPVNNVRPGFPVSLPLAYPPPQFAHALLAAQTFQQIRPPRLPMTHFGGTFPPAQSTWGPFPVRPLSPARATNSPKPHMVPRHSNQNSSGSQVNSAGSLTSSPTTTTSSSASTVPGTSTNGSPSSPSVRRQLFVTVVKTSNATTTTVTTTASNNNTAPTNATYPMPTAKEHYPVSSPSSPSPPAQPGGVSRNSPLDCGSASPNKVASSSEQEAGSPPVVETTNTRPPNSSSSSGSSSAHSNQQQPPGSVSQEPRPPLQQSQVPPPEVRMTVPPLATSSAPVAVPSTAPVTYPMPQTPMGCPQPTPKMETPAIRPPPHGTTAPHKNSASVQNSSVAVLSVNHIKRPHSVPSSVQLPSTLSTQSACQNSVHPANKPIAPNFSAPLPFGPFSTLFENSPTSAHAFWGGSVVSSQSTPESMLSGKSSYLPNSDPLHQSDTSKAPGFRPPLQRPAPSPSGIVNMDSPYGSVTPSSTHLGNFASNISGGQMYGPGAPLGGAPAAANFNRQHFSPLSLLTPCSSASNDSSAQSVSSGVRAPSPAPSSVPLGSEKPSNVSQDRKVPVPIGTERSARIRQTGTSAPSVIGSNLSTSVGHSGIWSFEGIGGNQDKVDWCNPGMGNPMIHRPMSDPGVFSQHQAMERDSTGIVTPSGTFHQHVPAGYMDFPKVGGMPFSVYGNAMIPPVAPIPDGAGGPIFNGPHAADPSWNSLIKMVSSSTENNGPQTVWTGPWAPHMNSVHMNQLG
UniProt O95167, whole entry: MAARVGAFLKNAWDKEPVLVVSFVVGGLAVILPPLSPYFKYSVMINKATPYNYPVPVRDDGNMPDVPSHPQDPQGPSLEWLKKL
UniProt O95235: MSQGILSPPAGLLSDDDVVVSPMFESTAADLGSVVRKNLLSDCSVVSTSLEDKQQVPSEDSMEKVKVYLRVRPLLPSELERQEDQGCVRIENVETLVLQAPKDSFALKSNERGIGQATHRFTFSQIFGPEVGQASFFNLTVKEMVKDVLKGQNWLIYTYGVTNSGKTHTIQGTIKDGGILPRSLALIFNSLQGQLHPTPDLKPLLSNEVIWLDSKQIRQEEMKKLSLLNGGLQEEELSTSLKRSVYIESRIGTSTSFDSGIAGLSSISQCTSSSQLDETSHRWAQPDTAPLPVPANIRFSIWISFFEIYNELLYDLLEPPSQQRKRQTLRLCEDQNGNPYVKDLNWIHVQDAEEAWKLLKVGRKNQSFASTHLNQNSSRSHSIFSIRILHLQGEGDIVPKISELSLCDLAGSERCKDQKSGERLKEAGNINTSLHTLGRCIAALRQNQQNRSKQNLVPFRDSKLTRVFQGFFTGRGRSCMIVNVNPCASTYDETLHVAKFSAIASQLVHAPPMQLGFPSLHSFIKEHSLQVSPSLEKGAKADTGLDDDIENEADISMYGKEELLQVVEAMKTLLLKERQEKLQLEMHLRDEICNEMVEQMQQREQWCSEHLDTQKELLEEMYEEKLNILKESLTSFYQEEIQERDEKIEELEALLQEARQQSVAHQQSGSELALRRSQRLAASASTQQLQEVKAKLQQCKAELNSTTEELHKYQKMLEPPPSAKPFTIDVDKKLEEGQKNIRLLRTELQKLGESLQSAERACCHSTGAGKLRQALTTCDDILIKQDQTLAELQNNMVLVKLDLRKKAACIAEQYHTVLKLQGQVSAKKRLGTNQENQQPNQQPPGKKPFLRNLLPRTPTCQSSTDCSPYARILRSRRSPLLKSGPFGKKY
UniProt O60942: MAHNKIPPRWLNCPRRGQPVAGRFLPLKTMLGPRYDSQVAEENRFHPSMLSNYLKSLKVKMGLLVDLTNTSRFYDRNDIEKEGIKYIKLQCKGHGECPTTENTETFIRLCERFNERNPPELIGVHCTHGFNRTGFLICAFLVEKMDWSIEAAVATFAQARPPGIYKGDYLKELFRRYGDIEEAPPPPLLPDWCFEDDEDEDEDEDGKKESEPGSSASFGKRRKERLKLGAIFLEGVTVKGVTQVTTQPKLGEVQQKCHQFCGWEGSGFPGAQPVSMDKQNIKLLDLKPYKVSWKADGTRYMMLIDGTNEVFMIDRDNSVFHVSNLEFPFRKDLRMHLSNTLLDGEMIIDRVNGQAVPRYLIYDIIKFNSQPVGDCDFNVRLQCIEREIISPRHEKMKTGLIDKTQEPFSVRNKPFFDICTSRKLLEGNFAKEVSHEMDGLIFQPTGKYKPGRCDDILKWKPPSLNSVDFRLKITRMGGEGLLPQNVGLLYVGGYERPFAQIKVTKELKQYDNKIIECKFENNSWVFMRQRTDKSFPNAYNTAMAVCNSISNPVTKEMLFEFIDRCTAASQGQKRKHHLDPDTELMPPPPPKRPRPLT
UniProt O94986: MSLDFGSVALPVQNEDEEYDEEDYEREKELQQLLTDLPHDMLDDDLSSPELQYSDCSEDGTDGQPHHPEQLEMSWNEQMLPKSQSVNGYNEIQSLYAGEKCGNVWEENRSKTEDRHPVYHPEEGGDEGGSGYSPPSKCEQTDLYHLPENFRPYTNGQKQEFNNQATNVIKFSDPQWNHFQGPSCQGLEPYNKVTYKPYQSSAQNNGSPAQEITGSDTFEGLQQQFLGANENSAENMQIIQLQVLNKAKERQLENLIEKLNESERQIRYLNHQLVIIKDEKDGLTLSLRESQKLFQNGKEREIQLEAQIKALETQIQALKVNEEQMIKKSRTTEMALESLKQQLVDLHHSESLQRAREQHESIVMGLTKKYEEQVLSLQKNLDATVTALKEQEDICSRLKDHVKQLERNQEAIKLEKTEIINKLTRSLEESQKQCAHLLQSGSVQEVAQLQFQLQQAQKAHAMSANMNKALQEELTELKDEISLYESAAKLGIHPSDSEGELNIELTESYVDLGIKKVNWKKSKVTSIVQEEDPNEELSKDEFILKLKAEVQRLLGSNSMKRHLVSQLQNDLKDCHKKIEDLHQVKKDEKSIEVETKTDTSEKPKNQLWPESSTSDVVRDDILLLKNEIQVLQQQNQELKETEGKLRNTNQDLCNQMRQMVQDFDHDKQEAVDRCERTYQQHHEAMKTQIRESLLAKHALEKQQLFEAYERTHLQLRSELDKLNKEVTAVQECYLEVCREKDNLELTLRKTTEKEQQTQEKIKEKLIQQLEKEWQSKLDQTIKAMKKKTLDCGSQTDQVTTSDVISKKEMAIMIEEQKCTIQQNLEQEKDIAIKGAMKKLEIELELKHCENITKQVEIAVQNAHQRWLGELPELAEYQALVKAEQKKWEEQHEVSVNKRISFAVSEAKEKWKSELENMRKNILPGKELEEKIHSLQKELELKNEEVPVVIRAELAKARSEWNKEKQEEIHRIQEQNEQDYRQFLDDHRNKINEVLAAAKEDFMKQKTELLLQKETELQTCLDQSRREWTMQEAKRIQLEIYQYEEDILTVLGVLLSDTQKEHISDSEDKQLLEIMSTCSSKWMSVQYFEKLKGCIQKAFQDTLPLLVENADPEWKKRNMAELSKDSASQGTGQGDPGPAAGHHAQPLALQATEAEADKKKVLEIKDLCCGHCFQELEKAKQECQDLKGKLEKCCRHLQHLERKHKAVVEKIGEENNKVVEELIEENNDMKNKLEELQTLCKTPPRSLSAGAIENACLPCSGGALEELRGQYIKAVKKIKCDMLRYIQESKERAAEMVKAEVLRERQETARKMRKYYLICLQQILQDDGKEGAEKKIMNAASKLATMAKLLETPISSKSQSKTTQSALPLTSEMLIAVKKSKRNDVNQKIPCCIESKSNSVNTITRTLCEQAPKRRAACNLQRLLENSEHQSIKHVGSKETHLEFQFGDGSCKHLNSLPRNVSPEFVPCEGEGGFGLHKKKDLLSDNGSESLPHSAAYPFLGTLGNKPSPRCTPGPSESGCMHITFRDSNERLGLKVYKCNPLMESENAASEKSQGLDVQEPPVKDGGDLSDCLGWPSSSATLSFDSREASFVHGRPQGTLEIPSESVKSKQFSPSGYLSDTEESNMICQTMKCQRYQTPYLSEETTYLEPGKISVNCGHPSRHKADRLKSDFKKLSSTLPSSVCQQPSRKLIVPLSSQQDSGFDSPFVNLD
UniProt O75964: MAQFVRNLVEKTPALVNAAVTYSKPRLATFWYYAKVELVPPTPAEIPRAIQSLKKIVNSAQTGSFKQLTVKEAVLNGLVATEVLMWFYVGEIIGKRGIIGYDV

Compound: Nc1ncnc2c1ncn2[C@@H]1O[C@H](COP(=O)(O)OP(=O)(O)OP(=O)(O)O)[C@@H](O)[C@H]1O [adenosine triphosphate]
Test: NP40-soluble protein abundance relative to vehicle (solubility fold change) (ratio); higher = more soluble protein in presence of ATP
How it was run: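 Jurkat crude lysate (Dounce-homogenised) was treated with eight concentrations from 0.1 to 10 mM for 10 min at room temperature, then 3 min at 37 °C. It was solubilised with 0.8% NP40 and benzonase (60 min, 4 °C) and ultracentrifuged, and the supernatant was TMT-labelled for LC-MS/MS. Intensities were vsn-normalised, and the value is the fold change against the NP40-processed vehicle per replicate, from three independent experiments.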

Target	NP40-soluble protein abundance (concentration: 1mM)	NP40-soluble protein abundance (concentration: 2mM)	NP40-soluble protein abundance (concentration: 4mM)	NP40-soluble protein abundance (concentration: 6mM)	NP40-soluble protein abundance (concentration: 8mM)	NP40-soluble protein abundance (concentration: 10mM)
DDHD2 (UniProt O94830)	1.04 ± 0.036	1.04 ± 0.039	1.02 ± 0.028	0.969 ± 0.055	0.996 ± 0.039	0.9892 ± 0.0087
NDUFS3 (UniProt O75489)	0.9574 ± 0.0069	0.969 ± 0.028	0.952 ± 0.028	0.927 ± 0.061	0.98 ± 0.066	0.95 ± 0.042
MED26 (UniProt O95402)	1.11 ± 0.11	1.1 ± 0.08	1.14 ± 0.051	1.19 ± 0.062	1.1 ± 0.039	1.17 ± 0.11
SLC16A7 (UniProt O60669)	0.937 ± 0.084	0.92 ± 0.11	0.995 ± 0.055	0.995 ± 0.088	0.953 ± 0.05	0.977 ± 0.084
UniProt O75928 and related entries	1.02 ± 0.12	1 ± 0.1	1 ± 0.1	1 ± 0.072	1.01 ± 0.1	1.03 ± 0.083
ATG7 (UniProt O95352)	0.969 ± 0.026	0.974 ± 0.039	0.965 ± 0.035	0.928 ± 0.036	0.972 ± 0.037	0.981 ± 0.032
AHSA1 (UniProt O95433)	0.986 ± 0.07	0.982 ± 0.061	0.944 ± 0.062	0.97 ± 0.077	0.958 ± 0.07	0.94 ± 0.057
UniProt O94804	0.98 ± 0.026	0.9785 ± 0.0081	0.973 ± 0.011	0.9999 ± 0.0083	0.9482 ± 0.0093	0.975 ± 0.026
UniProt O75054 and related entries	0.943 ± 0.098	0.936 ± 0.079	0.944 ± 0.095	0.929 ± 0.12	0.868 ± 0.046	0.947 ± 0.043
KIF4A (UniProt O95239)	0.988 ± 0.031	0.981 ± 0.019	0.9679 ± 0.0069	1.01 ± 0.021	0.964 ± 0.011	0.965 ± 0.0038
UniProt O60831 and related entries	0.955 ± 0.052	1.01 ± 0.044	0.939 ± 0.016	0.931 ± 0.057	0.932 ± 0.025	0.931 ± 0.016
UniProt O95297 and related entries	0.927 ± 0.075	0.908 ± 0.059	0.859 ± 0.043	0.92 ± 0.062	0.834 ± 0.032	0.866 ± 0.081
VAPB (UniProt O95292)	0.977 ± 0.074	0.953 ± 0.03	0.944 ± 0.04	1.01 ± 0.025	0.932 ± 0.02	0.909 ± 0.025
UniProt O95475	1.07 ± 0.08	1.1 ± 0.045	1.13 ± 0.11	1.09 ± 0.068	1.09 ± 0.076	1.07 ± 0.086
UniProt O75475 and related entries	1.04 ± 0.026	1.1 ± 0.012	1.12 ± 0.02	1.23 ± 0.027	1.18 ± 0.057	1.22 ± 0.036
UniProt O75947	0.934 ± 0.092	0.914 ± 0.061	0.906 ± 0.02	0.954 ± 0.14	0.889 ± 0.014	0.839 ± 0.061
UniProt O75182 and related entries	1.06 ± 0.11	1.03 ± 0.078	1.02 ± 0.059	1.05 ± 0.11	1.11 ± 0.1	1.09 ± 0.07
SURF6 (UniProt O75683)	0.993 ± 0.081	0.964 ± 0.037	0.988 ± 0.068	1.04 ± 0.082	0.987 ± 0.044	1 ± 0.084
UniProt O75170-3|O75170-4|O75170-5|O75170	1.03 ± 0.034	0.993 ± 0.056	1.02 ± 0.067	1.03 ± 0.077	1 ± 0.057	0.996 ± 0.09
UniProt O95671 and related entries	1.01 ± 0.072	1.01 ± 0.06	1 ± 0.072	0.99 ± 0.086	0.984 ± 0.062	0.967 ± 0.067

Target	NP40-soluble protein abundance (concentration: 1mM)	NP40-soluble protein abundance (concentration: 2mM)	NP40-soluble protein abundance (concentration: 4mM)	NP40-soluble protein abundance (concentration: 6mM)	NP40-soluble protein abundance (concentration: 8mM)	NP40-soluble protein abundance (concentration: 10mM)
SMPD2 (UniProt O60906)	0.962 ± 0.059	0.971 ± 0.033	0.926 ± 0.12	0.917 ± 0.019	0.948 ± 0.11	1.02 ± 0.11
UniProt O75179 and related entries	0.957 ± 0.034	0.975 ± 0.065	0.966 ± 0.042	0.99 ± 0.044	0.941 ± 0.015	0.991 ± 0.031
MOCS3 (UniProt O95396)	0.991 ± 0.025	0.996 ± 0.017	0.973 ± 0.017	0.974 ± 0.067	0.9597 ± 0.0041	0.932 ± 0.0097
UniProt O60506 and related entries	0.946 ± 0.09	0.841 ± 0.19	0.982 ± 0.059	0.921 ± 0.1	1.03 ± 0.065	0.982 ± 0.059
RNASEH1 (UniProt O60930)	1.06 ± 0.013	1.09 ± 0.017	1.15 ± 0.1	1.13 ± 0.054	1.14 ± 0.073	1.14 ± 0.032
UniProt O95167 and related entries	0.855 ± 0.14	0.803 ± 0.11	0.777 ± 0.15	0.794 ± 0.13	0.828 ± 0.15	0.699 ± 0.096
UniProt O94916 and related entries	0.944 ± 0.099	0.961 ± 0.061	0.989 ± 0.068	0.996 ± 0.042	0.941 ± 0.054	0.977 ± 0.04
SNRNP200 (UniProt O75643)	1.17 ± 0.11	1.16 ± 0.041	1.24 ± 0.027	1.25 ± 0.034	1.5 ± 0.028	1.46 ± 0.069
UniProt O95236 and related entries	0.894 ± 0.017	0.908 ± 0.037	0.936 ± 0.034	0.882 ± 0.022	0.889 ± 0.035	0.902 ± 0.03
UniProt O95235 and related entries	1.25 ± 0.06	1.29 ± 0.094	1.3 ± 0.059	1.38 ± 0.094	1.37 ± 0.081	1.43 ± 0.089
UniProt O60664	0.93 ± 0.036	0.935 ± 0.017	0.927 ± 0.018	0.957 ± 0.014	0.905 ± 0.034	0.868 ± 0.057
ERLIN1 (UniProt O75477)	1.03 ± 0.054	0.983 ± 0.076	0.944 ± 0.049	1.02 ± 0.18	0.968 ± 0.069	0.982 ± 0.064
UniProt O76021 and related entries	1.09 ± 0.12	1.16 ± 0.11	1.22 ± 0.094	1.31 ± 0.17	1.28 ± 0.067	1.46 ± 0.17
UniProt O95551	0.992 ± 0.044	0.962 ± 0.042	0.95 ± 0.045	0.946 ± 0.05	0.938 ± 0.045	0.923 ± 0.024
CCDC22 (UniProt O60826)	0.961 ± 0.036	0.9488 ± 0.0077	0.964 ± 0.024	0.941 ± 0.04	0.982 ± 0.011	0.934 ± 0.012
UniProt O95749 and related entries	1 ± 0.032	0.987 ± 0.049	0.969 ± 0.03	0.961 ± 0.026	0.957 ± 0.054	0.926 ± 0.052
UniProt O60733 and related entries	0.826 ± 0.0098	0.844 ± 0.012	0.72 ± 0.019	0.886 ± 0.014	0.81 ± 0.026	0.806 ± 0.081
GMDS (UniProt O60547)	1.03 ± 0.12	1.01 ± 0.079	0.988 ± 0.097	0.956 ± 0.11	1.02 ± 0.089	0.985 ± 0.052
CD2BP2 (UniProt O95400)	1.03 ± 0.079	1.13 ± 0.12	1.24 ± 0.15	1.36 ± 0.21	1.36 ± 0.18	1.38 ± 0.21
B3GAT3 (UniProt O94766)	0.976 ± 0.012	0.973 ± 0.038	0.924 ± 0.023	0.99 ± 0.026	0.932 ± 0.015	0.965 ± 0.023

Target	NP40-soluble protein abundance (concentration: 1mM)	NP40-soluble protein abundance (concentration: 2mM)	NP40-soluble protein abundance (concentration: 4mM)	NP40-soluble protein abundance (concentration: 6mM)	NP40-soluble protein abundance (concentration: 8mM)	NP40-soluble protein abundance (concentration: 10mM)
TOM1 (UniProt O60784)	0.871 ± 0.045	0.938 ± 0.041	0.956 ± 0.043	0.941 ± 0.05	0.94 ± 0.072	0.935 ± 0.018
RNGTT (UniProt O60942)	0.997 ± 0.026	1 ± 0.04	0.988 ± 0.035	0.992 ± 0.053	0.965 ± 0.038	0.995 ± 0.041
UniProt O95613 and related entries	0.991 ± 0.052	0.955 ± 0.065	1.04 ± 0.031	1.02 ± 0.031	1.03 ± 0.011	1.01 ± 0.078
PRKD3 (UniProt O94806)	1.12 ± 0.074	0.992 ± 0.14	1.03 ± 0.17	0.977 ± 0.092	0.927 ± 0.00093	1.06 ± 0.069
UniProt O95425 and related entries	1.08 ± 0.28	0.954 ± 0.029	1.15 ± 0.15	1.05 ± 0.09	1.14 ± 0.24	1.09 ± 0.14
UniProt O95169 and related entries	0.964 ± 0.11	0.906 ± 0.051	0.898 ± 0.077	0.96 ± 0.086	0.993 ± 0.094	0.854 ± 0.12
UniProt O75145 and related entries	0.984 ± 0.039	0.976 ± 0.014	0.9629 ± 0.0073	1.01 ± 0.011	0.91 ± 0.011	0.936 ± 0.039
UniProt O94986 and related entries	0.952 ± 0.16	0.991 ± 0.14	1.13 ± 0.093	1.11 ± 0.14	0.962 ± 0.099	1.01 ± 0.059
UniProt O94826	0.966 ± 0.02	0.971 ± 0.0099	0.9514 ± 0.0085	0.9994 ± 0.005	0.941 ± 0.017	0.947 ± 0.034
UniProt O75379 and related entries	1.04 ± 0.23	1.04 ± 0.21	1.08 ± 0.14	1.08 ± 0.11	1.05 ± 0.11	1.01 ± 0.093
HUS1 (UniProt O60921)	1.03 ± 0.032	0.978 ± 0.039	0.973 ± 0.022	0.949 ± 0.049	0.985 ± 0.036	0.986 ± 0.062
SNUPN (UniProt O95149)	0.995 ± 0.11	1.01 ± 0.1	0.998 ± 0.046	0.964 ± 0.11	0.998 ± 0.037	0.993 ± 0.038
UniProt O75410 and related entries	0.944 ± 0.065	0.954 ± 0.032	0.9509 ± 0.0038	0.97 ± 0.013	0.902 ± 0.03	0.908 ± 0.047
PSMG1 (UniProt O95456)	0.944 ± 0.089	0.953 ± 0.058	0.947 ± 0.054	0.863 ± 0.088	0.954 ± 0.023	0.95 ± 0.031
UniProt O75312	0.952 ± 0.045	0.979 ± 0.012	0.952 ± 0.041	1.01 ± 0.029	0.919 ± 0.031	0.937 ± 0.026
UniProt O75367 and related entries	0.852 ± 0.075	0.861 ± 0.023	0.883 ± 0.04	0.96 ± 0.025	0.995 ± 0.036	1.16 ± 0.08
VPS4B (UniProt O75351)	1 ± 0.04	1.01 ± 0.011	0.997 ± 0.021	1.01 ± 0.031	0.975 ± 0.048	0.991 ± 0.033
UniProt O75964	0.865 ± 0.016	0.886 ± 0.054	0.86 ± 0.077	0.823 ± 0.05	0.812 ± 0.023	0.803 ± 0.084
UniProt O60763 and related entries	0.921 ± 0.035	0.94 ± 0.018	0.8989 ± 0.0055	0.937 ± 0.019	0.9 ± 0.018	0.907 ± 0.014
UniProt O75608 and related entries	0.909 ± 0.036	0.96 ± 0.067	0.902 ± 0.027	0.952 ± 0.06	0.91 ± 0.0094	0.877 ± 0.079

Copied from the listing (3 entries):
Target	NP40-soluble protein abundance (concentration: 1mM)	NP40-soluble protein abundance (concentration: 2mM)	NP40-soluble protein abundance (concentration: 4mM)	NP40-soluble protein abundance (concentration: 6mM)	NP40-soluble protein abundance (concentration: 8mM)	NP40-soluble protein abundance (concentration: 10mM)
UniProt O75367 and related entries	0.852 ± 0.075	0.861 ± 0.023	0.883 ± 0.04	0.96 ± 0.025	0.995 ± 0.036	1.16 ± 0.08
VPS4B (UniProt O75351)	1 ± 0.04	1.01 ± 0.011	0.997 ± 0.021	1.01 ± 0.031	0.975 ± 0.048	0.991 ± 0.033
UniProt O75964	0.865 ± 0.016	0.886 ± 0.054	0.86 ± 0.077	0.823 ± 0.05	0.812 ± 0.023	0.803 ± 0.084
